The record followed here is article PMC11720578.

Sequences of proteins named here, by UniProt entry; tags and fusion partners are left off.
UniProt P35222: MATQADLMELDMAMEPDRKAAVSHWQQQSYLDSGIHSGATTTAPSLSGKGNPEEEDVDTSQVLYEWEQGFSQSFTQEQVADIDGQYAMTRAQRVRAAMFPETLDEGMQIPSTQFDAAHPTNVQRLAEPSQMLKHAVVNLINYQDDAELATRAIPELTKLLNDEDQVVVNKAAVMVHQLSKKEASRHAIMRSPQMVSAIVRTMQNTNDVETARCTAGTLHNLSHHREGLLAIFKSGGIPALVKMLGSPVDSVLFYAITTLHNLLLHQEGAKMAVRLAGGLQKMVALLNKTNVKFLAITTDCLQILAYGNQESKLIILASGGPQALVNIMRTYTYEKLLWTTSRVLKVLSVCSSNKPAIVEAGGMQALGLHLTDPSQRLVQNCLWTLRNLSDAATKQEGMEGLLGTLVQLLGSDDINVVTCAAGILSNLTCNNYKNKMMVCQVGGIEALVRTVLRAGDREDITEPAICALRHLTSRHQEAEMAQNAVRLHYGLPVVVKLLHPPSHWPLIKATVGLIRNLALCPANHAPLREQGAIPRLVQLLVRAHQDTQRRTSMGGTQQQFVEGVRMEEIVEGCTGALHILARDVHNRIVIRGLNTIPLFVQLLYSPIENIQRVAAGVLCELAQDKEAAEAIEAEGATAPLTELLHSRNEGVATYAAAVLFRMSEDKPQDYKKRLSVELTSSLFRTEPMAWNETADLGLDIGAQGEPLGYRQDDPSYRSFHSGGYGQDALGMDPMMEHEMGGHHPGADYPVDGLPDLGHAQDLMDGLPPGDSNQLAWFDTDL
UniProt Q09472: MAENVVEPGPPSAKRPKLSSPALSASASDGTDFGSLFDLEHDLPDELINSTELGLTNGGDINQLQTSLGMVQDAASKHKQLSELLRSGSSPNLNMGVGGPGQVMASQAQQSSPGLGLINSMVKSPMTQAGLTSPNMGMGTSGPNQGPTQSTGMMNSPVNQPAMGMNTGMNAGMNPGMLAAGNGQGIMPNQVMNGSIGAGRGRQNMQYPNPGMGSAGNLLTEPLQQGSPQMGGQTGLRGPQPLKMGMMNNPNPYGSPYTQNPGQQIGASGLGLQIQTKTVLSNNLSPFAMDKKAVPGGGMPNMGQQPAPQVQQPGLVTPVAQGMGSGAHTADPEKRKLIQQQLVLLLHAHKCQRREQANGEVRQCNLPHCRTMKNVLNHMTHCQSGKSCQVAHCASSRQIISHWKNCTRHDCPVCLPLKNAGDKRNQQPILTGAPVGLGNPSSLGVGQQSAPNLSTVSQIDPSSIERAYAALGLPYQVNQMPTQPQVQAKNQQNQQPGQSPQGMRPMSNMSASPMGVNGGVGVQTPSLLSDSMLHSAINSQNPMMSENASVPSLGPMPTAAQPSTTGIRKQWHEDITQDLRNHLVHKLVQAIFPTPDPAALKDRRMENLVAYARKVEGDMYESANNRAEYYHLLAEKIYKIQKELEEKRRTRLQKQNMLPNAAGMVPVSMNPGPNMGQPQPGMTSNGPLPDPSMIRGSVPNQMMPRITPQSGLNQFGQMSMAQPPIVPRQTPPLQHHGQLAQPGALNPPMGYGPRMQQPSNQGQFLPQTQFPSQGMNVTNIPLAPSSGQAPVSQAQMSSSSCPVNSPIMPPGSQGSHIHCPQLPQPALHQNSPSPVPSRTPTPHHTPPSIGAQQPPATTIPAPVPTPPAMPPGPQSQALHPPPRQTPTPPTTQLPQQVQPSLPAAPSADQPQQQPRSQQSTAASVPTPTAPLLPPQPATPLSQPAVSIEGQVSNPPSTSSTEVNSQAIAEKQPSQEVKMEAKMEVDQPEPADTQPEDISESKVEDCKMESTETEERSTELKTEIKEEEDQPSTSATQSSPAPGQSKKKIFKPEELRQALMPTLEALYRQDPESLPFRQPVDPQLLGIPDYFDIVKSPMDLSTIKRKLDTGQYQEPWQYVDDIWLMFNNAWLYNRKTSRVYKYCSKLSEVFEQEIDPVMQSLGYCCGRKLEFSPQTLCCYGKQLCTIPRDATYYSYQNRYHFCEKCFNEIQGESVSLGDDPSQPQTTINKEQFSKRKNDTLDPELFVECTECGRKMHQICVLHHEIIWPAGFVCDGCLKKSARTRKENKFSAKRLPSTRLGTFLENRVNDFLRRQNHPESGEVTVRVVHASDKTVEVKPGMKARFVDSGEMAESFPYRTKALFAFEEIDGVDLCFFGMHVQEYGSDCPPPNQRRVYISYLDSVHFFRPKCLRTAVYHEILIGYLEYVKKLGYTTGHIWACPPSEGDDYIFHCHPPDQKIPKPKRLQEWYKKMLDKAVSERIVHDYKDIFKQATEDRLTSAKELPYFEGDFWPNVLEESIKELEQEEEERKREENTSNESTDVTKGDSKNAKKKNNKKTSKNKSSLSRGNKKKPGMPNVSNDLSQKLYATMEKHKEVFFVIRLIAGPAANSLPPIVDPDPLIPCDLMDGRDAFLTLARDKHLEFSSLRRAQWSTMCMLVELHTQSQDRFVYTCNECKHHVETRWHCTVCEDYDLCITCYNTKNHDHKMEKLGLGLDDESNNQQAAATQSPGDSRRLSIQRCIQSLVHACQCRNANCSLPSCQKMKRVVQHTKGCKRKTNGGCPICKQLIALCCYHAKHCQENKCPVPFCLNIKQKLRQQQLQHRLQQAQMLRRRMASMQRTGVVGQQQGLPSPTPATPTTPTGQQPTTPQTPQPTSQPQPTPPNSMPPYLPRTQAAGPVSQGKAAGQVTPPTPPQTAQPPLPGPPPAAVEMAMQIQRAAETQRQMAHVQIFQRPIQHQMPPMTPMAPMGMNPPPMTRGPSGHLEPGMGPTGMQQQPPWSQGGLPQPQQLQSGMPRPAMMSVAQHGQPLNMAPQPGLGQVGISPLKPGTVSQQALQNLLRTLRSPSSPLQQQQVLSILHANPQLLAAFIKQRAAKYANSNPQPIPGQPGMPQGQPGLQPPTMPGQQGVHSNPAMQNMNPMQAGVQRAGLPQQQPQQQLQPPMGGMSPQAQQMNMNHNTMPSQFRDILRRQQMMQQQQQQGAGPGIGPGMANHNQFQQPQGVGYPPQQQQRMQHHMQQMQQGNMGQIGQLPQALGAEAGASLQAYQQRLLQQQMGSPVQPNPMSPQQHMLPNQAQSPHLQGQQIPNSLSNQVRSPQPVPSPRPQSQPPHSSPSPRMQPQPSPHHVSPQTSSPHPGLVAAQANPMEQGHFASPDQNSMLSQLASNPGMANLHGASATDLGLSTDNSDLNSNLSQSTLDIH

For the assay, the target named is β-catenin (human (endogenous in hbl116)) (UniProt P35222). Put plainly: co-IP; endogenous proteins of hbl116 cells treated with DMSO, cisplatin (1 μM), PRI-724 (5 μM) or cisplatin plus PRI-724; precipitating antibody and conditions not told.

No constants are given. Whether binding was seen depends on the method and setting. In cells and extracts the contact can be indirect. Some binding calls cover weakened binding; strength is not graded here.

Consider p300 (from UniProt Q09472 1-2414), for which the binding result was “binds”.
